Results are given in words; binding and its absence hold for the method and conditions named. In cells and extracts the contact can be indirect. Some entries that bind do so weakly or less than the wild type. Where a sequence is shown, tags or fusion partners need not be part of it.

The experiment addresses T1, FLAG-YWHAB, P31946.
T1 chain: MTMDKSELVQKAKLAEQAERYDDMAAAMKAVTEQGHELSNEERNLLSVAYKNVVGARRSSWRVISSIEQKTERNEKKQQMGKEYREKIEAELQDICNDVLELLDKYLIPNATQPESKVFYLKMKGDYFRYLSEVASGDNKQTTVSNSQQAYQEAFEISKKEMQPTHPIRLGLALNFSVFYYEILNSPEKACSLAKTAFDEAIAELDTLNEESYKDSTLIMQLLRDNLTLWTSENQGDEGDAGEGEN
As to the kind of experiment: co-IP; HEK 293T cells overexpressing both tagged proteins; pulled down by anti-FLAG antibody, immunoblotted with anti-MYC antibody; cells treated with DMSO or 25 and 30 uM KA (less co-precipitate with KA). Conditions: remark: other sources report otherwise.

B1: MYC-YWHAB, P31946 1-246 (protein)
chain: MTMDKSELVQKAKLAEQAERYDDMAAAMKAVTEQGHELSNEERNLLSVAYKNVVGARRSSWRVISSIEQKTERNEKKQQMGKEYREKIEAELQDICNDVLELLDKYLIPNATQPESKVFYLKMKGDYFRYLSEVASGDNKQTTVSNSQQAYQEAFEISKKEMQPTHPIRLGLALNFSVFYYEILNSPEKACSLAKTAFDEAIAELDTLNEESYKDSTLIMQLLRDNLTLWTSENQGDEGDAGEGEN
Turning to B1, the binding result was “binds”.
